Here are results for two molecules from publication PMC10878155.

Sequences of proteins named here, by UniProt entry; tags and fusion partners are left off.
UniProt P17096: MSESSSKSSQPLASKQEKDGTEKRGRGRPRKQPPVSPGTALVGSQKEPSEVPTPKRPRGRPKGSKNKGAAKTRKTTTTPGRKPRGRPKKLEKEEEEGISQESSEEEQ

For one test, the target named is T1, STMN1 (UniProt P16949).
T1 sequence: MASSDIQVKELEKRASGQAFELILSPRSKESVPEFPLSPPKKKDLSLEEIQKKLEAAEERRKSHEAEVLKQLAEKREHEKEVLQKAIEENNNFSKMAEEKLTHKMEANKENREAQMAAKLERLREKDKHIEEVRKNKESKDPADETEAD
Nature of the test: co-IP; antibody on magnetic beads incubated with lysate of STMN1-overexpressing NCI-H1299 cells overnight at 4 °C; STMN1 or HMGA1 precipitated, partner detected by western blotting. (In general: Immunoblotting shows a protein as a band on a membrane.)

Test [1] concerns the target high mobility group AT-hook 1 (human (endogenous in NCI-H1299)) (UniProt P17096). The test is described as above.

Results are given in words; binding and its absence hold for the method and conditions named. In cells and extracts the contact can be indirect. Some binding calls cover weakened binding; strength is not graded here.

Consider “high mobility group AT-hook 1 (from UniProt P17096 1-107)”, for which the binding result with STMN1 is “binds”.

B1: STMN1 (protein, UniProt P16949 1-149)
chain: T1 sequence
As for B1, the binding entry in test [1] is given as “binds”.
